According to patent publication US20070078102:
At least one result comes from cells or an extract, where the contact may be indirect. For some assays here: Negatives hold for the conditions tested. For some assays here: Protein sequences can lack the tags named with them. For some assays here: The exact form of at least one protein or probe is not confirmed.

Chains of the proteins cited; added tags and fusions are not shown. A line that says so, or that is headed by a name, gives the form on record, which may keep a tag or linker. Residues count along the entry.
UniProt P08047, 2-785: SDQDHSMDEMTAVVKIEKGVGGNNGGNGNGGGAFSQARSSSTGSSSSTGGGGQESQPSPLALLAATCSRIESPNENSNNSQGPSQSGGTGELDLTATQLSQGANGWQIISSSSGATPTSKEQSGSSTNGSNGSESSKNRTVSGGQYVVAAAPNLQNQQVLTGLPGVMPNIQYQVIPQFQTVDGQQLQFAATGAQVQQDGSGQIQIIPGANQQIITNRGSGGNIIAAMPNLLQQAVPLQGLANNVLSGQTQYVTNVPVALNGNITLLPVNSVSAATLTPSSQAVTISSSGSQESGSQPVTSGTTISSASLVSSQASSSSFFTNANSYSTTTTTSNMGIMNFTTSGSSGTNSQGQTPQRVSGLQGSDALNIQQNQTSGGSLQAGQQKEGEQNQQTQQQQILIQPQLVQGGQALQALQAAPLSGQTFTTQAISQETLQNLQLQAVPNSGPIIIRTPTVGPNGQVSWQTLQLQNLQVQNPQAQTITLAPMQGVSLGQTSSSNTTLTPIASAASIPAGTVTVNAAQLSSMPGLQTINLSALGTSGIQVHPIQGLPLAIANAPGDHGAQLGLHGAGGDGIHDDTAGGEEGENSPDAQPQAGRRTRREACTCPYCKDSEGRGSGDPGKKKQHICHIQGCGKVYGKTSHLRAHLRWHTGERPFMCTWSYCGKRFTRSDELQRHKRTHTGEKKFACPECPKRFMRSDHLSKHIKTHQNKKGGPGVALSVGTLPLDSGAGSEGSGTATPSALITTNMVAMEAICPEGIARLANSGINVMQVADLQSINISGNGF
NF-kB p65/p50 heterodimer (RelA/NFKB1) (Homo sapiens), one chain, as listed by the source: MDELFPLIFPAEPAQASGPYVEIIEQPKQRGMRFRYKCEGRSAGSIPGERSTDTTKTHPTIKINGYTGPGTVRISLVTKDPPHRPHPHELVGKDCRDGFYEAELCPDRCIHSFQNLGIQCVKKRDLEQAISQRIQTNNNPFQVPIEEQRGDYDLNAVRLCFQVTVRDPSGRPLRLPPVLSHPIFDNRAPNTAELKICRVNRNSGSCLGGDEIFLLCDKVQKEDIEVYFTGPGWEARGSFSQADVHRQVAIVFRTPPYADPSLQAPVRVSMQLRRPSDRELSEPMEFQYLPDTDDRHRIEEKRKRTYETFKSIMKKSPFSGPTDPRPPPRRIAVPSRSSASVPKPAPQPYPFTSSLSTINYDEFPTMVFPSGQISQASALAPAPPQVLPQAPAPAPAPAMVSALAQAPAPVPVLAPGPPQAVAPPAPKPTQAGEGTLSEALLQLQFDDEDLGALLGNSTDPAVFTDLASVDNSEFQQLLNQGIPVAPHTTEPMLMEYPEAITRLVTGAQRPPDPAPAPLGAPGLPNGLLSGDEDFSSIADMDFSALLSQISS
NF-kB cRel/p50 heterodimer (Homo sapiens), one chain, as listed by the source: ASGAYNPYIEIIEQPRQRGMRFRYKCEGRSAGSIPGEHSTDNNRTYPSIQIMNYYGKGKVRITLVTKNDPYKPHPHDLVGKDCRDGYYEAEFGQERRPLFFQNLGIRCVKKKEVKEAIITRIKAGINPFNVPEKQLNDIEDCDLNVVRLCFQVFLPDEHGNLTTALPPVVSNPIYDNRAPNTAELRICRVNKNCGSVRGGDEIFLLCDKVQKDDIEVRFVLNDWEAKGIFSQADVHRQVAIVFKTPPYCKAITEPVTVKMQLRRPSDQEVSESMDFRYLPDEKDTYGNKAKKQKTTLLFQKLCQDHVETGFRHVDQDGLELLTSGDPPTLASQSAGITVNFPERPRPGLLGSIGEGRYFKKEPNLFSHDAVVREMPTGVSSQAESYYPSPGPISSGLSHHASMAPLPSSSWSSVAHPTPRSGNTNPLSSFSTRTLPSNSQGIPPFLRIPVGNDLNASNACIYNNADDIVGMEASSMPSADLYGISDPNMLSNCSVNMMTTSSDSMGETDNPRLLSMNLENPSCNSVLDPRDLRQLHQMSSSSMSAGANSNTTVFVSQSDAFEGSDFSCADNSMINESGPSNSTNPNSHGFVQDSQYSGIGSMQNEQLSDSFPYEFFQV

How the values were obtained:
[1] = test system: NF-kB p65/p50 heterodimer (RelA/NFKB1) (Homo sapiens); test: EMSA; settings: protein in an extract
Oct-1 (POU2F1) = biological target: T1, Oct-1 (POU2F1) (UniProt P14859); test: EMSA; settings: protein in an extract, variant of decoy 153/154 E-Z
T1 sequence (looked up, limits assumed): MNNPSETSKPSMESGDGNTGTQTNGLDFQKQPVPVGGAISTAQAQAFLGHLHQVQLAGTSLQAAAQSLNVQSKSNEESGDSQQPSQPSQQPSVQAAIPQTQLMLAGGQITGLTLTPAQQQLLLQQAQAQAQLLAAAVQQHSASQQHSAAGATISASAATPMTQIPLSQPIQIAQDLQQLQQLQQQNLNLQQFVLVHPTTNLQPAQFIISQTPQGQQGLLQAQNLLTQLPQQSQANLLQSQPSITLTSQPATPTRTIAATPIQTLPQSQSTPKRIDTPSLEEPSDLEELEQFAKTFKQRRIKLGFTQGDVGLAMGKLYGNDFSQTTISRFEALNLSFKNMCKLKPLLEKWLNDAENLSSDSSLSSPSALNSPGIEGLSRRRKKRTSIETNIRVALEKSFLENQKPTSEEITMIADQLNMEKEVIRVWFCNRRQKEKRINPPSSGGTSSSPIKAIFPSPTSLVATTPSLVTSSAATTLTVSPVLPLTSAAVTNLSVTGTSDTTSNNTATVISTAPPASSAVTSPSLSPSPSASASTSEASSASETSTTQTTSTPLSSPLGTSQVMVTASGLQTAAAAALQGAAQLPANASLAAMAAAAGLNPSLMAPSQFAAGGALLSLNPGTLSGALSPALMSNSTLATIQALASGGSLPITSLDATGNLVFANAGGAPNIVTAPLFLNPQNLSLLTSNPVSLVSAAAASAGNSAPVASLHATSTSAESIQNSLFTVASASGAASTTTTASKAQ

[2] = biological target: T2, NF-kB p50/p50 homodimer (NFKB1) (Homo sapiens) (UniProt P19838); test: EMSA; settings: protein in an extract
T2 sequence (looked up, limits assumed): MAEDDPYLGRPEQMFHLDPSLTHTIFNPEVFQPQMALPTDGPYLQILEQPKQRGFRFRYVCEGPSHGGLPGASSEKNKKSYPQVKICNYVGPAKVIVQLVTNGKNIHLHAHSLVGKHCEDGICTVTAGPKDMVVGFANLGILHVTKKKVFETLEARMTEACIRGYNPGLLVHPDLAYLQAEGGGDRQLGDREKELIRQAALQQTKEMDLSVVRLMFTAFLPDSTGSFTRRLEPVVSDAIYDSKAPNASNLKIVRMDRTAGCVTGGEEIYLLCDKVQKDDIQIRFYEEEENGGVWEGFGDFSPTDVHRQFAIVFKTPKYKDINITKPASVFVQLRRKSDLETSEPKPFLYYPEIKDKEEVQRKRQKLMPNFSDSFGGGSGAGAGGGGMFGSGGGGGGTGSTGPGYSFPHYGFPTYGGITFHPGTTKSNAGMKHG

[3] = biological target: T2, NF-kB p50/p50 homodimer (NFKB1) (Homo sapiens); test: competition with a labelled probe; settings: score 100 = less than 50% competition at any ratio tested, protein in an extract
SP1 = SP1 (UniProt P08047); test: ELONA; settings: full PS, both strands; protein in an extract; variant of decoy 153/154 E-Z
[4] = test system: NF-kB cRel/p50 heterodimer (Homo sapiens); test: EMSA; settings: binding to p65/p50 and cRel/p50 generally equivalent; protein in an extract
[5] = test system: NF-kB p65/p50 heterodimer (RelA/NFKB1) (Homo sapiens); test: competition with a labelled probe; settings: PS all linkages; no competition at up to 10-fold excess over IL-6 probe; protein in an extract; protein details: endogenous, nuclear extract of THP-1 cells
[6] = scrambled control, score 100 = under 50% competition

In the case of “AAGAGGACTTTCCAGAG (double strand) [decoy 183 E-AG FLANK]”, the IC50 (fold molar excess) [1] is reported as > 100.

“AGGACTTTCCA (double strand) [decoy 171 E-A FLANK]” was tested, and the IC50 (fold molar excess) [1] was > 100.

With “AGGACTTTCCAGGC (double strand) [decoy 293]” the IC50 (fold molar excess) ([1]; variant of decoy 153/154 E-Z) was > 100.

With “AGGACTTTCCAGGCTC (double strand) [decoy 297]” the IC50 (fold molar excess) [1] was > 100.

For “AGTTGAGACTTTCCAGGC (double strand) [decoy 157 F-Z]”, the IC50 (fold molar excess) [1] was > 100.

With “AGTTGAGACTTTCCCAGGC (double strand) [decoy 159 G-Z]” the IC50 (fold molar excess) [1] was > 100.

“AGTTGAGGACTTTCCAGGC (double strand) [153/154 H3/H3]” was tested, and the binding result (Oct-1 (POU2F1); PS at the 3 3'-most linkages of each strand) was “no binding” and the IC50 (fold molar excess) ([2]; PS at the 3 3'-most linkages of each strand, variant of decoy 153/154 E-Z) was > 100.

For “AGTTGAGGACTTTCCAGGC (double strand) [153/154 H4/H4]”, the IC50 (fold molar excess) ([3]; 4 3'-most linkages PS on both strands) was > 100.

With “AGTTGAGGACTTTCCAGGC (double strand) [153/154 H5/H5]” the IC50 (fold molar excess) ([3]; 5 3'-most linkages PS on both strands) was > 100.

In the case of “AGTTGAGGACTTTCCAGGC (double strand) [153/154 H6/H6]”, the IC50 (fold molar excess) ([3]; 6 3'-most linkages PS on both strands) is reported as > 100.

In the case of “AGTTGAGGACTTTCCAGGC (double strand) [153/154 H7/H7]”, the IC50 (fold molar excess) ([2]; PS at the 7 3'-most linkages of each strand, variant of decoy 153/154 E-Z) is reported as > 100.

With “AGTTGAGGACTTTCCAGGC (double strand) [153/154 PO/H5]” the IC50 (fold molar excess) ([3]; strand 153 all PO, strand 154: 5 3'-most linkages PS) was > 100.

“AGTTGAGGACTTTCCAGGC (double strand) [153/154 PO]”: no binding (Oct-1 (POU2F1); full phosphodiester, both strands).

“AGTTGAGGACTTTCCAGGC (double strand) [153/154 PS/PS]”: no binding (SP1).

“AGTTGAGGACTTTCCAGGC (double strand) [decoy 153/154 E-Z]”: binds [4].

In the case of “ATATGGACTTTCCTTAA (double strand) [decoy 185 E-AT FLANK]”, the IC50 (fold molar excess) [1] is reported as > 100.

In the case of “ATGGACTTTCCGT (double strand) [decoy 117 E-U]”, the IC50 (fold molar excess) [2] is reported as > 100.

“CAACGGACTTTCCACAC (double strand) [decoy 187 E-CA FLANK]” was tested, and the IC50 (fold molar excess) [1] was > 100.

“CAGTAGTATGTGAGCCTGC (double strand) [scrambled ODN 103 PS/PS]”: no binding [5].

In the case of “CAGTAGTATGTGAGCCTGC (double strand) [scrambled ODN 103]”, the IC50 (fold molar excess) [2, 6] is reported as > 100 and the IC50 (fold molar excess) [1, 6] is reported as > 100.

For “CAGTGGACTTTCCACTG (double strand) [decoy 189 E-CAGT FLANK]”, the IC50 (fold molar excess) [1] was > 100.

“CTCGGACTTTCCTCA (double strand) [decoy 241 E-W']” was tested, and the IC50 (fold molar excess) [1] was > 100.

For “CTCGGACTTTCCTGT (double strand) [decoy 177 E-W]”, the IC50 (fold molar excess) [2] was > 100.

“CTGGACTTTCCTC (double strand) [decoy 179 E-X]” was tested, and the IC50 (fold molar excess) [1] was > 100.

With “GAGGACTTTCCAG (double strand) [decoy 285 E-Z-6]” the IC50 (fold molar excess) ([1]; variant of decoy 153/154 E-Z) was > 100.

For “GAGGACTTTCCAGGC (double strand) [decoy 291]”, the IC50 (fold molar excess) ([1]; variant of decoy 153/154 E-Z) was > 100.

With “GGACTTTCC (double strand) [decoy 169 E core]” the IC50 (fold molar excess) ([1]; variant of decoy 153/154 E-Z) was > 100 and the IC50 (fold molar excess) ([3]; PS) was > 100.

In the case of “GTTGAGGACTTTCCAGGC (double strand) [decoy 287]”, the IC50 (fold molar excess) ([1]; variant of decoy 153/154 E-Z) is reported as > 100.

“TCGACTTTCCCTC (double strand) [decoy 213 G-V]” was tested, and the IC50 (fold molar excess) [1] was > 100.

For “TCGATTTCCCTC (double strand) [decoy 233 K-V]”, the IC50 (fold molar excess) [1] was > 100.

For “TCGATTTCCTC (double strand) [decoy 231 J-V]”, the IC50 (fold molar excess) [1] was > 100.

“TCGGATTTCCCTC (double strand) [decoy 229 I-V]” was tested, and the IC50 (fold molar excess) [1] was > 100.

“TCGGATTTCCTC (double strand) [decoy 227 H-V]” was tested, and the IC50 (fold molar excess) [2] was > 100.

For “TGAGGACTTTCCAGG (double strand) [decoy 283 E-Z-3]”, the IC50 (fold molar excess) ([1]; variant of decoy 153/154 E-Z) was > 100.

With “TGAGGACTTTCCAGGC (double strand) [decoy 289]” the IC50 (fold molar excess) ([2]; variant of decoy 153/154 E-Z) was > 100.

For “TGAGGACTTTCCAGGCTC (double strand) [decoy 295]”, the IC50 (fold molar excess) [2] was > 100.

“TGTGGGATTTTCCCATGACTC (double strand) [IL-6 promoter NF-kB probe]”: binds ([1]; p65/p50 complex identified by antibody supershift, competed by decoy, not by scramble, label: 32P 5'-end).

With “TTGAGGACTTTCCAG (double strand) [decoy 173 E-Z-4]” the IC50 (fold molar excess) ([2]; variant of decoy 153/154 E-Z) was > 100.

For “TTGAGGACTTTCCAGGC (double strand) [decoy 281 E-Z EVEN]”, the IC50 (fold molar excess) ([2]; variant of decoy 153/154 E-Z) was > 100.

With “TTGAGGATTTCCAGGC (double strand) [decoy 273 H-Z' (-3'2BP)]” the IC50 (fold molar excess) ([1]; variant of decoy 263 H-Z) was > 100.

For “TTGAGGATTTCCAGGCT (double strand) [decoy 275 H-Z' (-3'1BP)]”, the IC50 (fold molar excess) ([1]; variant of decoy 263 H-Z) was > 100.

In the case of “TTGAGGATTTCCAGGCTC (double strand) [decoy 277 H-Z']”, the IC50 (fold molar excess) [1] is reported as > 100.

“TTGCCGTACCTGACTTAGCC (double strand) [scrambled 107]” was tested, and the IC50 (fold molar excess) [2, 6] was > 100 and the IC50 (fold molar excess) [1, 6] was > 100.
